Reference: paper PMC3798195
No constants are given. Whether binding was seen depends on the method and setting. In cells and extracts the contact can be indirect. Sequences can lack the tags named with a protein.

The chains behind the UniProt entries cited, without tags or fusion partners. Where a name states a change or a piece, a line headed by the entry shows the natural chain unless it says otherwise.
UniProt O00429: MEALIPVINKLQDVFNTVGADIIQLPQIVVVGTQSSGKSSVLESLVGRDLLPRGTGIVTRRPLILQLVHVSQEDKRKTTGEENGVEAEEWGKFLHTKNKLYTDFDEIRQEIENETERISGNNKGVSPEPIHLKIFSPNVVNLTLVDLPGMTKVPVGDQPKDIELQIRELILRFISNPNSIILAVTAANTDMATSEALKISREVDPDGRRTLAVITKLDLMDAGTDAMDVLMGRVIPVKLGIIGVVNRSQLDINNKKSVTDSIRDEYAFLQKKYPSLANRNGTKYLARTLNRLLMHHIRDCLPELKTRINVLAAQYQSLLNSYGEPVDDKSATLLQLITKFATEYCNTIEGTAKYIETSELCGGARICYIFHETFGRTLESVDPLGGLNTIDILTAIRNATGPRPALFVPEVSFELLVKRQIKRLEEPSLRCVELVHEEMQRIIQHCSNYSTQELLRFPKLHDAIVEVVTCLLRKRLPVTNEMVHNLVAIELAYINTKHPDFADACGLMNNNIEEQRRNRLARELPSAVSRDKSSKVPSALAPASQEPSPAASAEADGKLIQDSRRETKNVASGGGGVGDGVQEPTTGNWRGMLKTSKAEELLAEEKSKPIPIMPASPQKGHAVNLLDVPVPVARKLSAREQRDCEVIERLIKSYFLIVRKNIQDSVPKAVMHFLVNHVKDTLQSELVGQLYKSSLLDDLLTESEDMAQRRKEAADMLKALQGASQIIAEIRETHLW

Target: T1, FLAG-Pex11pβ (UniProt O96011)
T1 sequence: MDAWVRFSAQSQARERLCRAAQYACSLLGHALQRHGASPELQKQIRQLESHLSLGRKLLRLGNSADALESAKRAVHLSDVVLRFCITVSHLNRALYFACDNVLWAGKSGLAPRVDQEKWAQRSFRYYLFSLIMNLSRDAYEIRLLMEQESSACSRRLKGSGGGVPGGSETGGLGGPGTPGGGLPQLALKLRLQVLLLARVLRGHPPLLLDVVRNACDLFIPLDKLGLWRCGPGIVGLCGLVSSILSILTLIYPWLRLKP
Assay: co-IP; HeLa cells transfected for 24 h (after control dsRNA or FIS1 dsRNA where used), treated with 1 mM DSP cross-linker, lysed in 20 mM Hepes-KOH pH 7.4, 150 mM NaCl, 1% CHAPS; immunoprecipitation with anti-FLAG IgG-conjugated agarose, immunoblot for HA, Mff, FLAG

Row | binding | Substance
1 | no binding | HA2-DLP1 A395D (from UniProt O00429 1-736)
2 | no binding | HA2-DLP1 G363D (from UniProt O00429 1-736)
